Record: PubChem BioAssay AID1224830 (NIAID, 2016)

Purpose: 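Regulators of TLR4 signalling towards TNF-alpha in macrophage-like cells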 (primary screen)
Cell system: human THP-1 monocytic leukaemia cells, TNF dual-luciferase reporter clone, PMA-differentiated to macrophage-like cells
Reagents: siRNA pool against human genes, 50 nM
Timing: LPS for 4 h, given about 3 days after siRNA transfection
Treatment: bacterial LPS (TLR4 ligand), 10 ng/ml
Detection: 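TNF firefly reporter luminescence divided by renilla, normalised to the plate median, then turned into a robust z-score for each replicate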
Scale: TNF reporter robust z-score: higher = stronger TNF reporter response to LPS
Call rule: 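Each well counts as active if its z-score is over 2.8 or under -1.5; controls are left without a call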
The deposit covers about 18,000 reagents; shown is a random part of them. Over the whole deposit, about 2,900 (16%) are marked active. 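Calls are made per well; low scores hint the gene aids the LPS response, high scores that it dampens it.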 Unmarked entries are inactive. Repeated entries: four replicate wells of each siRNA pool.

gene symbol	TNF reporter robust z-score
LRPPRC	0.22
LRPPRC	0.01
LRPPRC	1.17
LRPPRC	0.28
ISYNA1	-0.6
ISYNA1	-1.12
ISYNA1	-0.42
ISYNA1	-0.72
ZNF708	-0.21
ZNF708	1.17
ZNF708	0.98
ZNF708	2.6
STAT5A	1.31
STAT5A	0.3
STAT5A	-0.02
STAT5A	0.86
SPDYE3	-1.09
SPDYE3	0.62
SPDYE3	-0.37
SPDYE3	0.79
C1orf116	0.47
C1orf116	0.37
C1orf116	-0.1
C1orf116	0.11
SFXN1	0.11
SFXN1	-0.48
SFXN1	-0.71
SFXN1	-1.08
PDGFRA	-0.9
PDGFRA	-0.89
PDGFRA	-0.24
PDGFRA	-1.18
FGA	-1.03
FGA	-1.38
FGA	-0.56
FGA	-0.68
MS4A7	-0.01
MS4A7	0.3
MS4A7	0.93
MS4A7	0.89
TMEM63C	1.05
TMEM63C	1
TMEM63C	2.17
TMEM63C	1.71
CDHR1	0.05
CDHR1	1.12
CDHR1	0.49
CDHR1	0.39
URGCP	0.47
URGCP	1.77
URGCP	1.18
URGCP	-1
BEX4	1.1
BEX4	0.44
BEX4	0.63
BEX4	-0.15
ZNF800	-0.44
ZNF800	0.04
ZNF800	0.24
ZNF800	0.39
SEMA4C	-0.47
SEMA4C	1.21
SEMA4C	0.47
SEMA4C	-0.21

Ordered by “TNF reporter robust z-score” (descending): 11 of the entries above.
gene symbol	TNF reporter robust z-score
TMEM63C	2.17
TMEM63C	1.71
CDHR1	1.12
TMEM63C	1.05
TMEM63C	1
MS4A7	0.93
MS4A7	0.89
CDHR1	0.49
URGCP	0.47
CDHR1	0.39
CDHR1	0.05

Continued.
gene symbol	TNF reporter robust z-score
DKK4	0.74
DKK4	1.76
DKK4	1.23
DKK4	1.11
HAVCR2	-0.9
HAVCR2	0.09
HAVCR2	-0.71
HAVCR2	0.43
HNRNPH2	0.14
HNRNPH2	-0.88
HNRNPH2	-0.26
HNRNPH2	0.98
FOXA1	-1.21
FOXA1	0.08
FOXA1	-0.84
FOXA1	0.36
LOC389834	-0.92
LOC389834	-1.27
LOC389834	-2.14 (active)
LOC389834	-1.35
FBXL4	1.47
FBXL4	-0.45
FBXL4	3.23 (active)
FBXL4	2.04
VMO1	1.16
VMO1	0.66
VMO1	0.2
VMO1	1.31
YKT6	1.01
YKT6	0.32
YKT6	0.38
YKT6	0.58
ZNF254	-0.39
ZNF254	-0.48
ZNF254	-1.17
ZNF254	-0.36
MACC1	-0.47
MACC1	-1.11
MACC1	-0.13
MACC1	-0.55
SEC23A	-0.08
SEC23A	0.5
SEC23A	0.03
SEC23A	-0.05
TMED7	-0.15
TMED7	0.49
TMED7	-0.33
TMED7	-0.79
